{
  "source": "paper PMC12040169",
  "about": "(PLOS Biology, 2025)",
  "note": "Some of the results follow.",
  "data": [
    {"test_system": "T1, CTL2-GFP (C. trachomatis L2/434/Bu, GFP-expressing)", "T1 construct": "L2/434/Bu, GFP-expressing", "parameters": "species or system HeLa; Intracellular C. trachomatis growth in HeLa cells, bulk GFP fluorescence relative to DMSO", "conditions": "bulk GFP, single well; 28.5 h, 10 µM; inhibitor", "units": {"% of control remaining": "%"}, "values": [
      {"smiles": "Cc1nonc1OCCN1CCN(c2cc3c(cc2[N+](=O)[O-])n(C)c(=O)n3C)CC1", "note": "[CBK267676]", "% of control remaining": 123.954},
      {"smiles": "CCOC(=O)c1cccc(NC(=O)CSc2nc3cccnc3[nH]2)c1", "note": "[CBK269354]", "% of control remaining": 98.2348},
      {"smiles": "Cc1cccc(-c2cn3ccnc3c(N3CCN(c4ccccn4)CC3)n2)c1", "note": "[CBK066478]", "% of control remaining": 157.16},
      {"smiles": "CSc1nnc(-c2cccc(C)c2)n1CC1CCCCC1", "note": "[CBK085418]", "% of control remaining": 115.96},
      {"smiles": "O=C(O)c1ccc(CSc2nnc(-c3ccccc3)n2Cc2ccccc2)cc1", "note": "[CBK265013]", "% of control remaining": 102.24},
      {"smiles": "CCCC12CN3CC(CCC)(CN(C1)C3c1ccc(O)c(OC)c1)C2=O", "note": "(centres unmarked) [CBK265531]", "% of control remaining": 100},
      {"smiles": "O=C(Nc1cccc2[nH]ccc12)c1ccc2c(c1)OCCO2", "note": "[CBK159657]", "% of control remaining": 121.141},
      {"smiles": "CC(=O)NCc1cccc(-c2cc(OCC3COc4ccccc4O3)cnc2C)c1", "note": "(centres unmarked) [CBK161723A]", "% of control remaining": 90.445},
      {"smiles": "Cc1ccccc1C(=O)Nc1nc2ccc(S(C)(=O)=O)cc2s1", "note": "[CBK287337]", "% of control remaining": 123.301},
      {"smiles": "CCCN1C[C@H](NC(=O)CC)[C@@H](c2ccc(OC)cc2)C1", "note": "[CBK282134]", "% of control remaining": 153.152},
      {"smiles": "CN(C)S(=O)(=O)c1ccc(Cl)c(C(=O)Nc2cccc([N+](=O)[O-])c2)c1", "note": "[CBK265721]", "% of control remaining": 204.948},
      {"smiles": "CCCc1ccc(C(=O)NCC(C)n2cncn2)o1", "note": "(centres unmarked) [CBK282883]", "% of control remaining": 122.866},
      {"smiles": "CSCCOc1cncc(N2CCCC2)n1", "note": "[CBK115761]", "% of control remaining": 100},
      {"smiles": "CCCCC(c1nnn[nH]1)n1nnc2ccccc21", "note": "(centres unmarked) [CBK023526]", "% of control remaining": 103.28},
      {"smiles": "Cn1cc(-c2ccc(C3CCCCN3Cc3ccnc4ccccc34)cn2)cn1", "note": "(centres unmarked) [CBK285672]", "% of control remaining": 124.39},
      {"smiles": "CCc1nc(CN2CCN(c3ccc4nc(C)nn4n3)CC2)cs1", "note": "[CBK306285]", "% of control remaining": 180.042},
      {"smiles": "CC(C(=O)N1CCC(c2ccncc2)CC1)c1ccccc1", "note": "(centres unmarked) [CBK285484]", "% of control remaining": 141.795},
      {"smiles": "COCC(=O)N1CCC(c2onc3c2CC(C)CC3)CC1", "note": "(centres unmarked) [CBK284599]", "% of control remaining": 143.536},
      {"smiles": "Cc1nsc(NCc2ccccc2CN2CCC(O)CC2)c1C#N", "note": "[CBK304695]", "% of control remaining": 122.432},
      {"smiles": "COc1ccc(CCOc2nccnc2-c2ccc(OC(F)(F)F)cc2)cc1", "note": "[CBK106846]", "% of control remaining": 91.6353},
      {"smiles": "Cc1cccc(-c2nc(CN3CCOCC3)cs2)c1", "note": "[CBK270299]", "% of control remaining": 129.479},
      {"smiles": "C=C(C)c1cccc(C(C)(C)NC(=O)N2CCC(C(=O)NC(c3ccc(OC)nc3)c3ccccc3C)CC2)c1", "note": "(centres unmarked) [CBK074871]", "% of control remaining": 118.318},
      {"smiles": "CN1CC(c2ccccc2)CC2(CCN(CCCn3cnnn3)CC2)C1", "note": "(centres unmarked) [CBK306522]", "% of control remaining": 112.594},
      {"smiles": "CCn1nnc2c(=O)n(CC(=O)Nc3ccccc3)cnc21", "note": "[CBK287828]", "% of control remaining": 97.0074},
      {"smiles": "COCc1cccc(-c2nccnc2OC(c2ccccc2)c2ccccc2)c1", "note": "[CBK106960]", "% of control remaining": 83.2579},
      {"smiles": "COC(C)(C)C(=O)N1CCCC(c2ccc(Cc3ccc(Cl)cc3)cn2)C1", "note": "(centres unmarked) [CBK285846]", "% of control remaining": 115.69},
      {"smiles": "COc1ccc(NC(=O)Nc2nn(Cc3c(F)cccc3Cl)cc2Cl)cc1OC", "note": "[CBK267019]", "% of control remaining": 134.439},
      {"smiles": "Nc1nc(=O)[nH]c2c1ncn2[C@H]1C[C@@H](O)[C@@H](CO)O1", "note": "[CBK201323]", "% of control remaining": 147.844},
      {"smiles": "CNC(=O)Nc1cccc(S(N)(=O)=O)c1", "note": "[CBK023839]", "% of control remaining": 118.061},
      {"smiles": "O=C(NC1CCCCC1)c1cc(S(=O)(=O)N2CCOCC2)ccc1Cl", "note": "[CBK261662]", "% of control remaining": 100},
      {"smiles": "Cc1ccc(C(=O)Nc2ccccc2C(=O)N2CCN(Cc3ccccc3)CC2)cc1", "note": "[CBK263560]", "% of control remaining": 92.8051},
      {"smiles": "CC(C)(C)CCNCCN1CCOCC1", "note": "[CBK001895]", "% of control remaining": 98.9083},
      {"smiles": "N#CC1=C(N)Oc2[nH]nc(-c3cccs3)c2C1c1ccco1", "note": "(centres unmarked) [CBK266088]", "% of control remaining": 155.754},
      {"smiles": "Cc1cc(Cl)ccc1NC(=O)COC(=O)c1ccccc1I", "note": "[CBK265638]", "% of control remaining": 100},
      {"smiles": "CC(C)C1OC(NC2CC(C)(C)NC(C)(C)C2)=NC1=O", "note": "(centres unmarked) [CBK070360T]", "% of control remaining": 114.332},
      {"smiles": "CN1CCC(N(C)C(=O)NCCN2CCOCC2)C1", "note": "(centres unmarked) [CBK156002]", "% of control remaining": 109.999},
      {"smiles": "Cc1ccc(Cn2nc(NC(=O)c3cc(C)on3)c3ccccc32)cc1", "note": "[CBK048215]", "% of control remaining": 135.295},
      {"smiles": "Cc1ccccc1C(=O)Nc1cccc(NC(=S)NC(=O)c2cccs2)c1", "note": "[CBK263895]", "% of control remaining": 129.949},
      {"smiles": "Cc1cc(C)n(CC(=O)NCCCn2ccnc2C(C)C)c(=O)n1", "note": "[CBK307185]", "% of control remaining": 148.254},
      {"smiles": "Cc1ccc2c(c1)C(=O)CC1(CCC3C(C(=O)N4CCCC4)C31)O2", "note": "(centres unmarked) [CBK284951]", "% of control remaining": 145.97},
      {"smiles": "Cc1nc2ccc(C(=O)N(C)CCN(C)C)cn2c1N(C)Cc1cccs1", "note": "[CBK146083]", "% of control remaining": 118.8},
      {"smiles": "Cc1cn(C2CC(O)C(CO)O2)c(=O)nc1SCCC#N", "note": "(centres unmarked) [CBK201201]", "% of control remaining": 132.461},
      {"smiles": "CCN(Cc1ccncc1)C(=O)NCc1c(Cl)cccc1Cl", "note": "[CBK155144]", "% of control remaining": 95.8575},
      {"smiles": "CC(=O)N1c2ccc(C(O)CN3CCSCC3)cc2CC1C", "note": "(centres unmarked) [CBK283143]", "% of control remaining": 109.317},
      {"smiles": "FC(F)(F)c1ccnc(Sc2ccccn2)n1", "note": "[CBK093786]", "% of control remaining": 105.322},
      {"smiles": "CC(C)C[C@H](NC(=O)N1CC(=O)Nc2ccccc21)C(=O)O", "note": "[CBK286589]", "% of control remaining": 110.382},
      {"smiles": "O=C(Cc1ccsc1)N1CCn2nc(C(O)Cc3ccccc3)cc2C1", "note": "(centres unmarked) [CBK306547]", "% of control remaining": 160.316},
      {"smiles": "O=C(COc1ccc2ccccc2c1)Oc1ccc2ccccc2c1", "note": "[CBK264885]", "% of control remaining": 100},
      {"smiles": "Cc1nc(N)nc(N[C@@H]2CCOC[C@H]2OCCN(C)C)c1Cl", "note": "[CBK307024]", "% of control remaining": 76.9555},
      {"smiles": "O=C(O)c1ccc(Nc2ncnc3c2oc2ccccc23)cc1", "note": "[CBK269825C]", "% of control remaining": 123.484},
      {"smiles": "CCN1CCCC1CN(Cc1cnn(C)c1)Cc1ccco1", "note": "(centres unmarked) [CBK282470]", "% of control remaining": 112.714},
      {"smiles": "C/C=N\\n1c(CO)nnc1CO", "note": "[CBK034325]", "% of control remaining": 121.263},
      {"smiles": "O=C(NCC(c1ccccc1)c1c[nH]c2ccccc12)Nc1ccc(Cl)cc1", "note": "(centres unmarked) [CBK269147]", "% of control remaining": 106.259}
    ]}
  ]
}
